Results are given in words; binding and its absence hold for the method and conditions named. Tags and fused reporters may be left off the sequences shown.
Assays:
[1] = molecular target: T1, eGFP-SENYADAS (Escherichia coli); assay: MST; 50 nM eGFP-degron (eGFP fluorescence), SspB titrated 3.72 nM to 122 μM; 25 mM Hepes pH 7.6, 200 mM KCl, 5 mM MgCl2, 10% glycerol, 0.05% Tween 20; 15 min at RT; measured at 20 °C, Monolith NT.115; both purified
T1 sequence: SENYADAS

[2] = molecular target: T2, eGFP-SENYALAA (Escherichia coli); assay: as above
T2 sequence: SENYALAA

[3] = molecular target: T1, eGFP-SENYADAS (Escherichia coli); assay: native gel or EMSA; 8 μM eGFP-degron and 8 μM SspB2 mixed, about 10 min at RT in 50 mM Tris-HCl pH 7.5, 200 mM NaCl, 5 mM MgCl2; 15% native polyacrylamide gel in Tris/borate buffer; SimplyBlue Safe Stain; both purified
[4] = molecular target: T2, eGFP-SENYALAA (Escherichia coli); assay: as above

B1: SspB (natural protein, Escherichia coli, UniProt P0AFZ3 1-165, looked up)
chain: MDLSQLTPRRPYLLRAFYEWLLDNQLTPHLVVDVTLPGVQVPMEYARDGQIVLNIAPRAVGNLELANDEVRFNARFGGIPRQVSVPLAAVLAIYARENGAGTMFEPEAAYDEDTSIMNDEEASADNETVMSVIDGDKPDHDDDTHPDDEPPQPPRGGRPALRVVK
binding [1]: no binding (tested: SspB up to 122 μM)
binding [2]: no binding (tested: SspB up to 122 μM)
binding [3]: no binding (tested: 8 μM each)
binding [4]: no binding (tested: 8 μM each)

— publication PMC8512704, “A Uniform Benchmark for Testing SsrA-Derived Degrons in the Escherichia coli ClpXP Degradation Pathway” (Molecules, 2021)
